Results taken from publication PMC9738581, “Dissection of Functional Domains of Orc1-2, the Archaeal Global DNA Damage-Responsive Regulator”.
Substitutions are numbered along the chain they refer to. A weaker result is weaker than the reference pair of the same experiment. Where a protein sequence is shown, tags need not be part of it.

Key:
Test in all cases: EMSA
Conditions in all cases: EMSA: 20 mM HEPES pH 7.6, 10 mM (NH4)2SO4, 1 mM DTT, 0.2% Tween-20, 30 mM KCl, 40 °C 20 min, 2 nM probe; 8% native PAGE in 40 mM Tris, 20 mM boric acid; recombinant protein; protein details: His; label: 5'-32P
[1] = target: T1, Orc1-2 ISM G127D,L128D (Saccharolobus islandicus REY15A) (UniProt F0NF18)
T1 sequence (looked up, limits assumed): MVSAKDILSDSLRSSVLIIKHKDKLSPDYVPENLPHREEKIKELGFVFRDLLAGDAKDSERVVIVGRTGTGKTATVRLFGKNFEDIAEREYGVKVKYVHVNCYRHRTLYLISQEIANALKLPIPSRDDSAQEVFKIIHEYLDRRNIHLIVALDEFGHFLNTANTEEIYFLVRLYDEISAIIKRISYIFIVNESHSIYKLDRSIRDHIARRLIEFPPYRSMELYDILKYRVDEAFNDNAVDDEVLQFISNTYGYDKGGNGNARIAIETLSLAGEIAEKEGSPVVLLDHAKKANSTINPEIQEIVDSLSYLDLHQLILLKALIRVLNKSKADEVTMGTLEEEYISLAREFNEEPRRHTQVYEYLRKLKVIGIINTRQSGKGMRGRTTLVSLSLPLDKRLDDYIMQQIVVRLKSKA

[2] = target: T2, Orc1-2 wH-m2 R381A,R383A (Saccharolobus islandicus REY15A) (UniProt F0NF18)
T2 sequence (looked up, limits assumed): T1 sequence (looked up, limits assumed) with D127G, D128L, R381A, R383A

[3] = target: T3, Orc1-2 wH-m1 R353A,R354A (Saccharolobus islandicus REY15A) (UniProt F0NF18)
T3 sequence (looked up, limits assumed): T1 sequence (looked up, limits assumed) with D127G, D128L, R353A, R354A

[4] = target: T4, Orc1-2 WA K72A (Saccharolobus islandicus REY15A) (UniProt F0NF18)
T4 sequence (looked up, limits assumed): T1 sequence (looked up, limits assumed) with K72A, D127G, D128L

Measured: binding result

CTATAAAGGAAGTTTTAAGTAATTTCGGTATTGTGTGAGTATATTT (double strand) [PupsE]
binds more weakly: all assays above
